± gives the standard deviation. The list shows a part of the results, in another mix than the full data. Many entries were measured with a wide error.
Assays:
[1] = system: MIWI (PIWIL1) piRISC loaded with piRNA #1 (30 nt); assay: pre-steady-state target cleavage rate (min^-1); higher = faster piRNA-guided slicing of the target; conditions: guide: piRNA #1 5'p-UGAGGUAGUAGGUUGUAUAGUAUCCAGAGG; auxiliary factor: 500 nM mouse GTSF1;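 note: 1 nM active piRISC with 0.1 nM target library at 33 °C single turnover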
Outline: (§1)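 A burst-and-steady-state fit was used to obtain the pre-steady-state cleavage rate. The input data were sequencing reads of uncleaved targets, normalised to depth and to weakly complementary targets, from a […] transcribed, DNA-blocked target RNA library mixed with 1 nM active affinity-purified piRISC holding one synthetic guide, with or without 500 nM GTSF1 partner protein, in HEPES–potassium acetate buffer at 33 °C for 0–8 or 0–960 min. Three trials were pooled and k3 was capped at 0.0001 min^-1.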

[2] = system: EfPiwi piRISC loaded with piRNA #1 (26 nt); assay: pre-steady-state target cleavage rate (min^-1); guide: piRNA #1 5'p-UGAGGUAGUAGGUUGUAUAGUAUCCA; MIWI and MILI are mouse PIWI proteins and EfPiwi is from a freshwater sponge; tags in brackets are library labels; higher = faster piRNA-guided slicing of the target; conditions: auxiliary factor: 500 nM Ephydatia muelleri Gtsf1
Outline: as §1

Row | Sequence | pre-steady-state target cleavage rate [1] | pre-steady-state target cleavage rate [2]
1 | GGAGACCUAUGUAUACAACCUAGCUACCUCA | 0.00184 ± 0.0035 | 0.000716 ± 0.0084
2 | GGAGACCUAUCUAUAGUUCCUACUACCUCA | 0.000949 ± 0.0068 | 0.00208 ± 0.0042
3 | GGAGACGAUACUAUACAACCUACUACCUUA | 1.35 ± 0.09 | 0.224 ± 0.068
4 | GGAGACCUAUGAUAUGUACCUGACUACCUCA | 0.000195 ± 0.012 | 0.000141 ± 0.022
5 | GGAGACCUAACUAUUCUACCUACUACCUCA | 0.00207 ± 0.0058 | 0.000922 ± 0.0072
6 | GGAGACCUAUGAUAUGUACAUACUACCUCA | 0.001 ± 0.0059 | 0.000419 ± 0.0058
7 | GGAGACCUAUGAUAUCAUCCUACUACCUCA | 0.000205 ± 0.0077 | 0.00115 ± 0.005
8 | GGAGACCUAUGAUAACAACACUACUACCUCA | 0.000464 ± 0.017 | 0.00034 ± 0.013
9 | GGAGACCUAUCUAUACUUGCUACUACCUCA | 0.000943 ± 0.0057 | 0.000441 ± 0.0071
10 | GGAGACCUAUGAUAACAACCUACAUACCUCA | 0.000894 ± 0.0036 | 0.000159 ± 0.027
11 | GGAGACCUAUGAUAUGUUGGUACUUCCACA | 0.000587 ± 0.0081 | 0.000259 ± 0.0075
12 | GGAGUUGAUACUAUACAACCUACUACCUCA | 1.97 ± 0.13 | 0.193 ± 0.06
13 | GGAGACCUAUGUAAACAACCUACUACCUCA | 0.00247 ± 0.0033 | 0.00236 ± 0.0042
14 | GGAGACCUAUGAUAUGUAUCCUACUACCUCA | 0.000463 ± 0.0082 | 0.0011 ± 0.0056
15 | GGAGACGAUACUAUACAGCCUACUACCUCA | 0.668 ± 0.028 | 0.0104 ± 0.0039
16 | GGAGACCUAUGAAUACAUCCUACUACCACA | 0.000568 ± 0.0075 | 0.000448 ± 0.014
17 | GGAGACCUAUGUAAACAACCUACUACCUGA | 0.000997 ± 0.0061 | 0.00109 ± 0.0076
18 | GGAGACCUAUGAUAUCAUGCUACUACCUCA | 0.000401 ± 0.0093 | 0.000434 ± 0.0041
19 | GGAGACCUAUGUAUACUACCUAGUACCUCA | 0.000419 ± 0.0053 | 0.000371 ± 0.01
20 | GGAGACCUAUGAAAACAACCUACUACCUCA | 0.00128 ± 0.0073 | 0.00243 ± 0.0032
21 | GGAGACGAUACUAUACAACCUAGAUCCUCA | 0.113 ± 0.015 | 0.00272 ± 0.0017
22 | GGAGACCUAUGAUUACAACCUACUACCUCU [g2:g17:cont:t1U] | 0.00175 ± 0.0044 | 0.732 ± 0.29
23 | GGAGACCAUACUAUUCUACCUACUACCUCA | 0.224 ± 0.035 | 0.000958 ± 0.0064
24 | GGAGACCUAUGUAUUCAAGCUACUACCUCA | 0.00239 ± 0.0024 | 0.00122 ± 0.0053
25 | GGAGACCUAUGAUAUGUUUCUACUACCUCA | 0.000394 ± 0.012 | 0.00168 ± 0.0034
26 | GGAGACCUAACAAUACAACCAACUACCUCA | 0.00111 ± 0.0079 | 0.000738 ± 0.011

Quoted from the results shown (3 entries):
Row | Sequence | pre-steady-state target cleavage rate [1] | pre-steady-state target cleavage rate [2]
4 | GGAGACCUAUGAUAUGUACCUGACUACCUCA | 0.000195 ± 0.012 | 0.000141 ± 0.022
5 | GGAGACCUAACUAUUCUACCUACUACCUCA | 0.00207 ± 0.0058 | 0.000922 ± 0.0072
6 | GGAGACCUAUGAUAUGUACAUACUACCUCA | 0.001 ± 0.0059 | 0.000419 ± 0.0058

Next part.

Row | Sequence | pre-steady-state target cleavage rate [1] | pre-steady-state target cleavage rate [2]
27 | GGAGACCUAUGAUAACAACCUUCUACCUCA | 0.00127 ± 0.0027 | 0.00029 ± 0.0069
28 | GGAGAGGAUACUAUGCAACCUACUACCUCA | 1.62 ± 0.095 | 0.242 ± 0.091
29 | GGAGACCUAUGAUUACAACCUACUACCUCC [g2:g17:cont:t1C] | 0.00144 ± 0.0047 | 0.00181 ± 0.0046
30 | GGAGACCUAUGAUAACAAGCUACUACCUCA | 0.00122 ± 0.004 | 0.000663 ± 0.0074
31 | GGAGACCUAUGAUAUGUUCGCUACUACCUCA | 0.00052 ± 0.0061 | 0.000459 ± 0.0051
32 | GGAGACCUAUCUAAAGAACCUACUACCUCA | 0.00166 ± 0.0035 | 0.000271 ± 0.0096
33 | GGAGACCUAUGAUAACAACCUACUAACCUCA | 0.00095 ± 0.0047 | 0.000305 ± 0.015
34 | GGAGACGAUACUAUACUAGCUACUACCUCA | 0.579 ± 0.048 | 0.00469 ± 0.0025
35 | GGAGACCUAUGUAUUCAACCUACUAGCUCA | 0.000232 ± 0.013 | 0.000226 ± 0.012
36 | GGAGACCUAUGUAUACUACGUACUACCUCA | 0.00129 ± 0.006 | 0.000428 ± 0.0049
37 | GGAGACCUAUGAUAUGUUGCUACUACGAGA | 0.000448 ± 0.016 | 0.00108 ± 0.0053
38 | GGAGACCUAUCUUUACUACCUACUACCUCA | 0.00251 ± 0.003 | 0.00221 ± 0.0044
39 | GGAGACGAUAACUAUACAACCUACUACCUCA |  | 0.0617 ± 0.023
40 | GGAGACCAUACUAUACUACCUACAACCUCA |  | 0.000927 ± 0.0043
41 | GGAGACGAUACUAUAAACCUACUACCUCA |  | 0.00399 ± 0.0041
42 | GGAGACGAUACUAUUGUACCUACUACCUCA |  | 0.00097 ± 0.0058
43 | GGAGACCUAACUAUACAACCUACUACCCUCA |  | 0.00262 ± 0.0041
44 | GGAGACCUUACUAUACAACCUACUACCCA |  | 0.00518 ± 0.0043
45 | GGAGACCAUACAAAACAACCUACUACCUCA |  | 0.00423 ± 0.0037
46 | GGAGACGAUACUAUACUUGCUACUACCUCA |  | 0.00176 ± 0.0051
47 | GGAGACGAUUCUAUACAACCUACUACGUCA |  | 0.00127 ± 0.0025
48 | GGAGACCUAUCUAUACAUGCUACUACCUCA |  | 0.00132 ± 0.0035
49 | GGAGACCUUACUUUACUACCUACUACCUCA |  | 0.00277 ± 0.0046
50 | GGAGACCUAUCUAUACAACCUACUACCAGA |  | 0.00327 ± 0.0026
51 | GGAGACCUAACUACUACAACCUACUACCUCA |  | 0.00946 ± 0.0059
52 | GGAGUGGAUACUAUACAACCUUCUACCUCA |  | 0.0116 ± 0.0048

Row | Sequence | pre-steady-state target cleavage rate [1] | pre-steady-state target cleavage rate [2]
53 | GGAGACCUAACUAUACAACCUACUACCUA |  | 0.0706 ± 0.025
54 | GGAGACGAUACUAUACAACACUACUACCUCA |  | 0.00912 ± 0.0032
55 | GGAGUGGAUACUAUUCAACCUAGUACCUCA |  | 0.00286 ± 0.0013
56 | GGAGAGGAUUGUAUACAACCUACUACCUCA |  | 0.00676 ± 0.0048
57 | GGAGACCUAUGUAUACAACCUACUACGACA |  | 0.000807 ± 0.011
58 | GGAGAGGAUACUAUACAACCUACAUCCUCA |  | 0.00358 ± 0.0016
59 | GGAGUGGAUCACUAUACAACCUACUACCUCA |  | 0.00417 ± 0.0043
60 | GGAGACCUAUCUAUACAACCUAGUUCCUCA |  | 0.00263 ± 0.0032
61 | GGAGAGGAUACUAUACAACCUACUGCCUCA |  | 0.00919 ± 0.0038
62 | GGAGACCUAUGAUAUGAAGCUACUUCCUCA |  | 0.000145 ± 0.018
63 | GGAGACGAUACUAUACACCCUACUACCUCA |  | 0.011 ± 0.0045
64 | GGAGAGGAAACUAUACAACCUACUACCUCA |  | 0.00596 ± 0.0036
65 | GGAGACCUUACUAUACAACCUACUACCUGA |  | 0.00415 ± 0.0019
66 | GGAGUGGAUACUAUACUUGCUACUACCUCA |  | 0.00165 ± 0.0042
67 | GGAGACCUAUGUAUACAACCUACUACCCCA |  | 0.00195 ± 0.0043
68 | GGAGACCUAUGUAUACAACUUACUACCUCA |  | 0.000827 ± 0.007
69 | GGAGAGGAUUCUAUACAACGUACUACCUCA |  | 0.00249 ± 0.0021
70 | GGAGACCUAUGAUAUGUACCAACUACGUCA |  | 0.00042 ± 0.012
71 | GGAGACCUAUCUUUACAACCUACUACCUGA |  | 0.00263 ± 0.004
72 | GGAGACCUAUCUAUACUACCUACAACCUCA |  | 0.000222 ± 0.011
73 | GGAGUGGAAUACUAUACAACCUACUACCUCA |  | 0.122 ± 0.045
74 | GGAGUGGAUACUAUACAAGCUAGUACCUCA |  | 0.00287 ± 0.0014
75 | GGAGUGGAUACUAUACAACGAACUACCUCA |  | 0.00257 ± 0.0018
76 | GGAGUGGAUUCUAUACAACCUACUACCUGA |  | 0.00261 ± 0.002
77 | GGAGACCUAACUAUACAACCUACUAGCCUCA |  | 0.00191 ± 0.0053
78 | GGAGAGGAUACUAUACAACCUACUACCACA |  | 0.00641 ± 0.0021

Reference: the supplement of paper PMC10338343
